Out of some 1,000 compounds screened, about 230 (23%) were called active. This list was built around the results that the source calls inconclusive (neither active nor inactive); the mix of calls is not that of the screen. How the calls were made is not given here.
Molecular target: Long-chain-fatty-acid--AMP ligase FadD28 (Mycobacterium tuberculosis (strain ATCC 25618 / H37Rv)) (UniProt P9WQ59)
Test: inhibitors of FadD28 bisubstrate probe binding, dose response, biochemical, fluorescence polarization, cherry-pick (AID 624273)
Conditions: at 50 µM (top of the series)

Chains of the proteins cited; added tags and fusions are not shown. Lines headed by an entry give the natural chain unless they say otherwise; changes in a name come on top.
UniProt P9WQ59: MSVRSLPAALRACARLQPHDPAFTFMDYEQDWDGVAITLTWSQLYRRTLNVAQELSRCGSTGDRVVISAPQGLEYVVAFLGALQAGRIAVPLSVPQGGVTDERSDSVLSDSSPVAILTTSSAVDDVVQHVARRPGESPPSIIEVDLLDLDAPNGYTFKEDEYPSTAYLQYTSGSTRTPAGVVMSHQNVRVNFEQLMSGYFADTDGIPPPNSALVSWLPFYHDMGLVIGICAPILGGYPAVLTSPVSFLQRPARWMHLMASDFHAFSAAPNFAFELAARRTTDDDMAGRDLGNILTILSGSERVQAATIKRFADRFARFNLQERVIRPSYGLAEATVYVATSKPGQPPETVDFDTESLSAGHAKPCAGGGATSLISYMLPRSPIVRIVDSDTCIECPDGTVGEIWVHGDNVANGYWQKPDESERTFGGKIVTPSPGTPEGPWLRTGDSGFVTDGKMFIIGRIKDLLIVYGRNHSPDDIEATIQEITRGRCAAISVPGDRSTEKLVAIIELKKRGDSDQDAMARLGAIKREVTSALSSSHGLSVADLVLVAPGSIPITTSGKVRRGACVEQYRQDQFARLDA

| SMILES | activity change, negative = inhibition |
| --- | --- |
| CCOC(=O)c1c(NC(C)=O)sc2c(O)c(Br)cc(Br)c12 | inconclusive: -66.2% |
| COc1ncnc(-c2ccccc2)c1-c1ccccc1 | inactive: -5.28% |
| S=c1nc(-c2ccco2)[nH][nH]1 | inactive: -2.11% |
| COc1cc(/C=C2/C(=O)NN(c3ccc(Cl)cc3)C2=O)cc(OC)c1O | inconclusive: -85.3% |
| O=C(Cn1cc(S(=O)(=O)Cc2cccc([N+](=O)[O-])c2)c2ccccc21)N1CCOCC1 | inactive: -3.46% |
| COc1ccc(OC)c(S(=O)(=O)N2CCC3(CC2)OCCN3S(=O)(=O)c2cccs2)c1 | inconclusive: -63.1% |
| CC(C)(C)c1ccc(NC(=O)NCc2ccco2)cc1 | inconclusive: -54.9% |
| COc1cccc(NC(=O)CN(C)C(=O)c2cc3c(s2)CCC(C)C3)c1 (stereo unspecified) | inconclusive: -74% |
| CCc1cccc2c(C(=O)COC(=O)c3ccc([N+](=O)[O-])s3)c[nH]c12 | inconclusive: -21.7% |
| Cc1cccc(NC(=O)CN2C(=O)N/C(=C/c3ccc(C)s3)C2=O)c1 | inactive: -16.4% |
| Cc1cccc(OCCn2ccnc2)c1C | inconclusive: -60.3% |
| CCOC(=O)C1(CC2CCCCO2)CCN(S(=O)(=O)c2ccc(OC)cc2)CC1 (stereo unspecified) | inconclusive: -2.68% |
| CCc1cccc2c(C(=O)COC(=O)/C=C/c3ccc(O)c(OC)c3)c[nH]c12 | inconclusive: -6.29% |
| CC1=NN(c2nc(-c3ccc(Cl)cc3)cs2)C(=O)C1 | inconclusive: -77.5% |
| O=C(NCc1cccnc1)c1cc(-c2ccccc2)on1 | inactive: -4.29% |
| CCN(CC)c1ccc(/C=N/NC(=O)c2ccc3nc[nH]c3c2)cc1 | inconclusive: -85% |

Some values from the list:
Entry of `CCc1cccc2c(C(=O)COC(=O)c3ccc([N+](=O)[O-])s3)c[nH]c12` under activity change, negative = inhibition: inconclusive: -21.7%
Entry of `CCc1cccc2c(C(=O)COC(=O)/C=C/c3ccc(O)c(OC)c3)c[nH]c12` under activity change, negative = inhibition: inconclusive: -6.29%

From PubChem BioAssay AID624273 (Broad Institute, 2012)
